## Percent effect of library compounds

Chains of the proteins cited; added tags and fusions are not shown.
UniProt P9WNZ1, whole entry: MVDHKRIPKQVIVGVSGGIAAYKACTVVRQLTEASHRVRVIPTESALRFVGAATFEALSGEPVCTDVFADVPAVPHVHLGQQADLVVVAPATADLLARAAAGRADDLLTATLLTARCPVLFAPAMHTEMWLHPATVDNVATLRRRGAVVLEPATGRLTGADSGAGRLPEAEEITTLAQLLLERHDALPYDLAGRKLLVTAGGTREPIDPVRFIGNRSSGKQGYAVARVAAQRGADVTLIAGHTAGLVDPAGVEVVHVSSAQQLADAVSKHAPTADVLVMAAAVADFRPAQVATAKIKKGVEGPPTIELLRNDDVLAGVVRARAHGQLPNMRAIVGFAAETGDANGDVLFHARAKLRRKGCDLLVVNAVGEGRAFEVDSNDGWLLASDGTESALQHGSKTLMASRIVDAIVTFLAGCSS
UniProt P9WFT3, whole entry: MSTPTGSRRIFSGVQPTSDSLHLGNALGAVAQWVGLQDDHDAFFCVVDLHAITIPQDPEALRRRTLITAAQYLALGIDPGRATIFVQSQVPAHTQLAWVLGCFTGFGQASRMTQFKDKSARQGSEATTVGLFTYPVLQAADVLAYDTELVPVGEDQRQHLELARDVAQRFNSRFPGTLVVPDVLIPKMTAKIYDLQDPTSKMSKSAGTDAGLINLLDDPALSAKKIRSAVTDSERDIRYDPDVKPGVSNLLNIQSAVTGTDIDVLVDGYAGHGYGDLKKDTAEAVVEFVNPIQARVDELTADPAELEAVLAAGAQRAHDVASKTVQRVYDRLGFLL

From ChEMBL document CHEMBL3988442, “University of Dundee, Small-Polar-MMV Screening Library” (2021).

A: 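Enzyme assay of CoaBC with a phosphate dye (Biomol Green) read at 650 nm. Target: Coenzyme A biosynthesis protein CoaBC, Mycobacterium tuberculosis (UniProt P9WNZ1). Concentration: 30 µM. Direction is inferred from only a few compounds that gave an IC50; most scored high, so higher reads as stronger inhibition. Most strong results did not repeat in a second test. Of about 67,000 compounds tested this way, about 40 (0.06%) reached 50% or more in at least one test.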
B: 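Enzyme assay of tryptophanyl-tRNA synthetase; the read-out is not stated. Target: Tryptophan-tRNA ligase, Mycobacterium tuberculosis (UniProt P9WFT3). Compounds at 10 µM. Higher most likely means stronger inhibition; the record gives no direction and few retests gave an IC50. Of about 65,000 compounds tested this way, about 64 (0.098%) reached 50% or more in at least one test.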

Each number is a percent effect as filed. The record does not define 0% and 100%; most values in the screen are far below 50% and negative numbers occur (in some assays of this library far below -100). The compounds are a random part of those screened.

{"structure": "CCn1cc2c(n1)CN(CC1CC1)CC2COCC1CC1", "stereo": "stereo not drawn", "A": 7.513, "B": 1.938}
{"structure": "CO[C@H]1CCN(Cc2cccc(C)n2)[C@@H]2CN(Cc3cccnc3)C[C@H]12", "A": -28.17, "B": -6.003}
{"structure": "Cc1cc(C)nc(NCCC(=O)Nc2ccc(Cn3cncn3)cc2)n1", "A": -3.682, "B": 5.289}
{"structure": "COc1cccc(C(O)Cn2ncc3ncccc3c2=O)c1", "stereo": "stereo not drawn", "A": 6.517, "B": -4.856}
{"structure": "c1ccc(C2Cn3ccnc3CN2Cc2ncc[nH]2)cc1", "stereo": "stereo not drawn", "A": -29.54, "B": -3.851}
{"structure": "CC(=O)c1cc(CN2C[C@@H](CN3CCCC3)[C@@H](CO)C2)n(C)c1", "B": 0}
{"structure": "O=C(O)c1cc(NS(=O)(=O)c2ccc(Br)s2)c(F)cc1F", "A": 9.34, "B": 4.451}
{"structure": "Cn1cc(-c2ncnc3c2CCN(C(=O)c2cscn2)CC3)cn1", "A": -3.171}
{"structure": "Cc1cc(CCC2CN(Cc3ccccc3C(=O)O)CCO2)ncn1", "stereo": "stereo not drawn", "A": 3.65, "B": 2.145}
{"structure": "CCN1CCOC(CNCc2cnc(C(C)(C)C)s2)C1", "stereo": "stereo not drawn", "A": -1.157, "B": 8.664}
{"structure": "CNC(=O)[C@@H]1C[C@@H]2CCN(Cc3ccoc3)C[C@H]2O1", "A": 4.198}
{"structure": "Nc1cc2c(nn1)CCN(C(=O)c1cccc3c1OCO3)C2", "A": 1.912, "B": -7.107}
{"structure": "Cc1cc(S(=O)(=O)N2CCC(S(C)(=O)=O)CC2)ccc1F", "A": -0.6337, "B": -3.418}
{"structure": "COC(=O)NCC(=O)NCc1nn(-c2ccccc2)c2c1CCC2", "A": 6.138, "B": 3.536}
{"structure": "O=c1[nH]c2ccccc2c(=O)n1Cc1nnnn1C1CC1", "B": 0.3096}
{"structure": "COCCn1ccnc1C1CCCN(c2ncnc3c2CCC3)C1", "stereo": "stereo not drawn", "A": 1.442, "B": 3.425}
{"structure": "CC(C)c1noc(C(C)N2CCN(CCO)CC2)n1", "stereo": "stereo not drawn", "A": -2.254, "B": -0.3912}
{"structure": "N#Cc1cnn(C(=O)COc2ccccc2F)c1N", "A": -1.935, "B": -11.06}
{"structure": "CCOC(=O)CNc1nc(COC)nc2c1cnn2C", "A": 1.966, "B": 1.41}
{"structure": "COc1cc(CNCc2ccc(C(C)O)cc2)cc2c1OCO2", "stereo": "stereo not drawn", "A": -6.408, "B": -4.762}
{"structure": "CN(CCCO)C(=O)c1ccc2c(c1)nc(N1CC[C@H](O)C1)n2C", "A": 1.887, "B": 0.8163}
{"structure": "NC(=O)c1ccc(CNCC2CCN(CCO)CC2)cc1", "A": 0, "B": 0.2349}
{"structure": "COCCN1CC2(CCN(C(=O)c3ccno3)CC2)c2ccccc21", "A": -0.1287, "B": -1.308}
{"structure": "c1csc(N2CCN(c3nccn4cnnc34)CC2)n1", "A": 10.68, "B": -4.549}
{"structure": "Cc1cc(-c2cnn(CCNC(=O)C3CCCO3)c2C2CC2)on1", "stereo": "stereo not drawn", "A": -5.278, "B": -1.421}
{"structure": "CN(C)CCO[C@@H]1CC[C@H]2[C@H]1OCCN2C(=O)c1ccnnc1", "A": 0.2469, "B": 4.991}
{"structure": "O=C(COc1ccccc1)N1C[C@@H]2COC[C@]2(COc2cccnc2)C1", "A": -0.4938}
{"structure": "COCCN1C(=O)CCC12CCCN(C(=O)NC(C)C)CC2", "stereo": "stereo not drawn", "A": 4.247, "B": -3.198}
{"structure": "CCCOc1cc(CNC(=O)Nc2ccccn2)ccn1", "A": -1.911, "B": 0.3067}
{"structure": "Cn1ncc2c1CCCC2NCc1cccc(F)c1", "stereo": "stereo not drawn", "A": 0.1164, "B": 0.7062}
{"structure": "CS(=O)(=O)N1CCC(N2CCCC2c2ccccn2)CC1", "stereo": "stereo not drawn", "A": 11.02, "B": 0.6717}
{"structure": "CCN(CC)C(=O)CN1CCCC1c1nc(C)c2c(n1)N(C)C(=O)CC2", "stereo": "stereo not drawn", "A": 7.656, "B": -3.906}
{"structure": "O=C1N(CC2CC2)CCC12CCN(c1ncccn1)CC2", "A": 1.209, "B": -2.824}
{"structure": "c1ccc(N2CCC3(COCCN(c4ncccn4)C3)C2)nc1", "stereo": "stereo not drawn", "A": 9.273, "B": 1.936}
{"structure": "O=C(NCCc1ccncc1)[C@H]1CC[C@@H]2[C@@H](CCN2CC2CC2)O1", "A": 5.212, "B": 0.8137}
{"structure": "Cc1csc(N2CCCN(C(=O)c3ccsc3)CC2)n1", "A": 5.159, "B": -3.685}
{"structure": "COc1ccc(CN2CCSCC2)c(OC)c1", "A": -1.491, "B": -2.147}
{"structure": "COc1cc(N2CCN(CC3CC3)c3nc(C)ccc3C2)ncn1", "A": 8.292}
{"structure": "Cc1cc(C(F)(F)F)nn1C(C)C(=O)NN1CCN(C)CC1", "stereo": "stereo not drawn", "A": -5.434, "B": -1.364}
{"structure": "Cc1cc(C)nc(C2CCN(C3CCOCC3)C2)n1", "stereo": "stereo not drawn", "A": 2.331, "B": -6.657}

For reference, 3 entries once more:

structure	A	B
CN(C)CCO[C@@H]1CC[C@H]2[C@H]1OCCN2C(=O)c1ccnnc1	0.2469%	4.991%
Cc1csc(N2CCCN(C(=O)c3ccsc3)CC2)n1	5.159%	-3.685%
Cc1cc(CCC2CN(Cc3ccccc3C(=O)O)CCO2)ncn1 (stereo not drawn)	3.65%	2.145%